From patent US6552027B2, “Quinazolines for treating brain tumor” (Parker Hughes Institute, priority 1998, dated 2003)
For some of these results: For at least one compound, name, drawing or mass did not settle the structure. Some of these results come from one statement about several compounds together.

Assays:
U373 cells [1] = test: Adhesion of glioblastoma cells to ECM protein-coated plates; assay type: cell-based, human
Procedure: In vitro adhesion assays were performed to (a) study the baseline adhesive properties of various glioblastoma cell lines and (b) evaluate the effects of quinazoline derivatives on the adhesive properties of glioblastoma cells. The plates for the adhesion assays were precoated with the extracellular matrix proteins laminin, fibronectin or type IV collagen (each at a final concentration of 1 μg/ml in PBS) overnight at 4° C. and dried. On the day of the experiment, the wells were rehydrated and blocked with 10% bovine serum albumin in PBS for 1 hour at room temperature and used for the adhesion assays, as described below.
DMSO (0.1%) was included as a vehicle control. […]
In adhesion assays, cells were centrifuged, washed twice with serum-free DMEM, counted and resuspended in serum-free DMEM to a final concentration of 2.5×10^5 cells/ml. […] The adherent fraction was quantitated using MTT (3-[4,5-dimethylthiazol-2-yl]-2,5-diphenyltetrazolium bromide) assays. […] The adherent fractions of cells treated with quinazoline derivatives were compared to those of DMSO-treated control cells and the percent inhibition of adhesion was determined sing the formula: [formula] […]

U373 cells [2] = test: Serum-induced actin stress fiber polymerization (immunofluorescence); assay type: cell-based, human; conditions: serum-starved U373; fetal bovine serum 10% v/v, two hours
[3] = test system: U373 glioblastoma spheroids; test: Cell migration from glioblastoma spheroids; assay type: cell-based, human; conditions: 2.5, 4.5 and 10 μM; 48 hours; fibronectin-coated coverslips
U373 cells [4] = test: EGF-induced formation of FAK+/Actin+ focal adhesion plaques (immunofluorescence); assay type: cell-based, human; conditions: serum-starved U373; preincubation at 10 μM
U373 glioblastoma cells = test: Uptake and internalization by immunofluorescence and confocal microscopy; assay type: cell-based, human; conditions: unconjugated compound
[5] = test system: U373 human glioblastoma cells; test: SCID mouse xenograft model of human glioblastoma; conditions: 1 mg/kg/day×10 days i.p.; control groups
Procedure: The right hind legs of the CB. 17 SCID mice were inoculated subcutaneously (s.c.) with 0.5×10^6 U373 human glioblastoma cells in 0.2 mL PBS. […] Daily treatments with PBS, unconjugated EGF (1 mg/kg/dose), and unconjugated WHI-P154 (1 mg/kg/dose) were used as controls. Mice were monitored daily for health status and tumor growth, and were sacrificed if they became moribund developed tumors which impeded their ability to attain food or water, at the end of the 3-month observation period. Tumors were measured using Vernier calipers twice weekly, and the tumor volumes were calculated according to the following formula (Friedman, S. H., mDolan, M. E., Pegg, A. E., Marcelli, S., Keir, S., Catino, J. J., Binger, D. D., Schold, S. C., Jr., 1995, Cancer Res., 55:2853-2857): [formula]
For histopathologic studies, tissues were fixed in 10% neutral buffered formalin, dehydrated, and embedded in paraffin by routine methods. Glass slides with affixed 6 micron tissue sections were prepared and stained with hematoxylin/eosin. Primary endpoints of interest were tumor growth and tumor-free survival outcome. Estimation of life table outcome and comparisons of outcome between groups were done, as previously reported (Waurzyniak, et al., 1997, Clinical Cancer Research 3:881-890; Anderson, et al., 1995, Cancer Res. 55:1321-1327; Uckun, et al., 1997, J. Clin. Oncol. 15:2214-2221).

| SMILES | inhibition of glioblastoma cell adhesion (in words) (U373 cells [1]) | serum-induced actin polymerization (in words) (U373 cells [2]) | cell migration from the spheroid (in words) [3] | formation of focal adhesion plaques after EGF stimulation (in words) (U373 cells [4]) | EGF-R redistribution / cytoplasmic anti-P154 staining (in words) (U373 glioblastoma cells; FIGS. 3B, 3B′) | time at which WHI-P154 molecules could be detected in cells (U373 glioblastoma cells; not at 6 or 12 hours) [h] | time beyond which no mouse remained alive tumor-free [5] [days] |
| --- | --- | --- | --- | --- | --- | --- | --- |
| COc1cc2ncnc(Nc3cc(Br)c(O)c(Br)c3)c2cc1OC [WHI-P97, 4-(3′, 5′-Dibromo-4′-hydroxylphenyl)-amino-6,7-dimethoxyquinazoline] | not more potent than WHI-P154 |  |  |  |  |  |  |
| COc1cc2ncnc(Nc3ccc(O)c(Br)c3)c2cc1OC [WHI-P154, 4-(3′-Bromo-4′-hydroxylphenyl)-amino-6,7-dimethoxyquinazoline] |  | inhibited serum-induced actin polymerization | significantly inhibited cell migration from the spheroid | prevented the formation of FAK^+/Actin^+ focal adhesion plaques | did not reveal any detectable redistribution of the surface EGF-R or cytoplasmic staining with the anti-P154 antibody | ≤ 24 | ≤ 33 |
| COc1cc2ncnc(Nc3ccccc3)c2cc1OC [WHI-P258, 4-(phenyl)-amino-6,7-dimethoxyquinazoline] | but not | but not |  |  |  |  |  |
| COc1cc2ncnc(Nc3ccc(O)cc3)c2cc1OC [WHI-P131, 4-(4′-Hydroxylphenyl)-amino-6,7-dimethoxyquinazoline] |  |  |  | prevented the formation of FAK^+/Actin^+ focal adhesion plaques |  |  |  |
